Like-named read-outs stand apart in the source and are kept apart here.
Assays:
CYP3A4/5 [1] = settings: HLM, midazolam 1′-hydroxylase
CYP3A4/5 [2] = settings: HLM, testosterone 6β-hydroxylase

CCC(=O)C(C[C@H](C)N(C)C)(c1ccccc1)c1ccccc1 [esmethadone]
Conclusion (inhibitory activity) (CYP3A4/5 [1]): Yes
Conclusion (inhibitory activity) (CYP3A4/5 [2]): Yes

From paper PMC11035515 (Drugs in R&D, 2023)
